Type in all cases: functional
The test system of assay [1] is Aspergillus niger. Put plainly: Antifungal activity against Aspergillus niger at 20 ug after 48 hrs by cup diffusion method. In a few lines:
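Cup diffusion on 9 cm plates seeded with 1 × 10⁶ cfu of fungi, with spores adjusted to at least 1 × 10⁶ cfu/ml in potato dextrose broth. Compound in DMF was placed in 5 mm agar cups and left 1 h to diffuse. Plates were incubated at 28 °C for 48 h and the inhibition zone read in mm. DMF was the negative control.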

Assay [2] relates to Pseudomonas aeruginosa. The assay is described as follows: Antibacterial activity against Pseudomonas aeruginosa MTCC 1688 at 20 ug after 24 hrs by cup diffusion method. In a few lines: (§1)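 Agar cup diffusion. Plates of sterile medium in 9 cm dishes were seeded with 1 × 10⁵ cfu of bacteria, with the suspension adjusted to at least 1 × 10⁵ cfu/ml in nutrient broth. Compound in DMF was placed in 5 mm cups and pre-diffused for 1 h. Plates were incubated at 37 °C for 24 h and the inhibition zone measured in mm. DMF served as negative control.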

The subject of assay [3] is Staphylococcus aureus. The assay is described as follows: Antibacterial activity against Staphylococcus aureus MTCC 737 at 20 ug after 24 hrs by cup diffusion method. A digest of the protocol:
as §1

The test system of assay [4] is Escherichia coli. Put plainly: Antibacterial activity against Escherichia coli MTCC 443 at 20 ug after 24 hrs by cup diffusion method. In a few lines: as §1

On to NYSTATIN, for which, in assay [1], the inhibition zone (IZ) was 11.5 mm.
Turning to GENTAMICIN, the results for the inhibition zone (IZ) in assay [2], in assay [3] and in assay [4] were 12.6 mm, 24.6 mm and 10.2 mm, respectively.

The values are drawn from ChEMBL document CHEMBL1152843, “Synthesis of new series of 5,6-dihydro-4H-1,2-oxazines via hetero Diels-Alder reaction and evaluation of antimicrobial activity” (2009).
